Reference: the supplement of paper PMC10849652
This is one part of the list.

Columns and labels:
Assay in all cases: log2 fold change, soluble protein after heating vs DMSO (PISA); higher = thermal stabilisation; K562 lysate, 10 uM; active = over 0.2 and 3.5 SD of the protein, either way, in both replicates (recomputed)
entospletinib = compound: c1cn2cc(-c3ccc4cn[nH]c4c3)nc(Nc3ccc(N4CCOCC4)cc3)c2n1 [entospletinib]
How it was run: (§1)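 K562 pellets were dounce-homogenised in PBS pH 7.4 with 1 mM MgCl2, and the crude extract at 1 mg/mL protein was treated with 10 μM compound for 30 min. Aliquots were heated for 3 min across 48°C-58°C, pooled, and brought to 0.5% NP-40 at 4°C; soluble protein was the supernatant after 21,000xg for 90 min. Soluble protein was quantified by TMTpro 16plex LC-MS/MS with channel sums equalised, and reported as log2 fold change in thermal stability against DMSO controls, with values from duplicates.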

[1] = compound: NCC(=O)Nc1ccc(-n2nc(C(F)(F)F)cc2-c2ccc3c(ccc4ccccc43)c2)cc1
How it was run: as §1

vorinostat = compound: O=C(CCCCCCC(=O)Nc1ccccc1)NO [vorinostat]
How it was run: as §1

silmitasertib = compound: O=C(O)c1ccc2c(c1)nc(Nc1cccc(Cl)c1)c1ccncc12 [silmitasertib]
How it was run: as §1

[2] = compound: O=C1NC(=O)C(c2cnc3ccccn23)=C1c1cn2c3c(cc(F)cc13)CN(C(=O)N1CCCCC1)CC2
How it was run: as §1

Measured: log2 fold change

PPM1B isoform 2 (UniProt O75688)
inactive: entospletinib -0.018

PPP6R3 isoform 5 (UniProt Q5H9R7)
inactive: [1] 0.001 | vorinostat 0.033 | silmitasertib 0.01 | [2] 0.002 | entospletinib 0.012

PPP6R1 (UniProt Q9UPN7)
inactive: [1] -0.01 | vorinostat -0.117 | silmitasertib 0.057 | [2] -0.004 | entospletinib 0.045

PPP1R11 (UniProt O60927)
active: vorinostat -0.31
inactive: silmitasertib 0.034 | [2] 0.028 | entospletinib -0.029

PRDX2 (UniProt P32119)
inactive: [1] -0.007 | vorinostat 0.103 | silmitasertib -0.026 | [2] 0.009 | entospletinib 0.019

PPP4R1 (UniProt Q8TF05)
inactive: [1] 0.007 | vorinostat -0.198 | silmitasertib 0.002 | [2] -0.004 | entospletinib -0.014

PRG4 (UniProt Q92954)
inactive: [2] -0.145

PPP5C (UniProt P53041)
inactive: [1] 0.016 | vorinostat 0.076 | silmitasertib -0.012 | [2] -0.024 | entospletinib 0.009

PRG2 (UniProt P13727)
inactive: [2] 0.035 | entospletinib 0.017

PPME1 (UniProt Q9Y570)
inactive: silmitasertib 0.185 | entospletinib -0.063
active: vorinostat -0.673

PROSER3, A0A2R8Y8D9
inactive: [2] 0.022

PPP1R14A, A0A0B4J2A3
inactive: vorinostat 0.118 | silmitasertib -0.152

PPP2R1B isoform 2 (UniProt P30154)
inactive: [1] 0.065 | vorinostat -0.074 | silmitasertib 0.008 | [2] 0.01 | entospletinib 0.006

PPL (UniProt O60437)
inactive: [2] -0.03 | entospletinib -0.039

PRELID1 (UniProt Q9Y255)
inactive: [1] 0.107 | [2] -0.024

PPP2R3C (UniProt Q969Q6)
inactive: [1] -0.019 | vorinostat -0.362 | silmitasertib 0.086 | entospletinib 0.074

PPP1R3E (UniProt Q9H7J1)
inactive: vorinostat 0.02 | silmitasertib -0.01

PRKCSH isoform 2 (UniProt P14314)
inactive: [1] -0.046 | vorinostat 0.126 | silmitasertib -0.057 | [2] -0.019 | entospletinib 0.037

PPP1R12C isoform 3 (UniProt Q9BZL4)
inactive: [2] -0.038

PPP2R3B (UniProt Q9Y5P8)
inactive: [2] -0.007

PPIP5K2 (UniProt H0Y9S9)
inactive: [1] 0.005 | vorinostat -0.332 | silmitasertib 0.054 | entospletinib -0.251

Quoted from the results shown (10 entries):
PROSER3, A0A2R8Y8D9
inactive: [2] 0.022

PPP1R14A, A0A0B4J2A3
inactive: vorinostat 0.118 | silmitasertib -0.152

PPP2R1B isoform 2 (UniProt P30154)
inactive: [1] 0.065 | vorinostat -0.074 | silmitasertib 0.008 | [2] 0.01 | entospletinib 0.006

PPL (UniProt O60437)
inactive: [2] -0.03 | entospletinib -0.039

PRELID1 (UniProt Q9Y255)
inactive: [1] 0.107 | [2] -0.024

PPP2R3C (UniProt Q969Q6)
inactive: [1] -0.019 | vorinostat -0.362 | silmitasertib 0.086 | entospletinib 0.074

PPP1R3E (UniProt Q9H7J1)
inactive: vorinostat 0.02 | silmitasertib -0.01

PRKCSH isoform 2 (UniProt P14314)
inactive: [1] -0.046 | vorinostat 0.126 | silmitasertib -0.057 | [2] -0.019 | entospletinib 0.037

PPP1R12C isoform 3 (UniProt Q9BZL4)
inactive: [2] -0.038

PPP2R3B (UniProt Q9Y5P8)
inactive: [2] -0.007

Later entries

PREP (UniProt P48147)
inactive: [1] 0.006 | vorinostat -0.153 | silmitasertib 0.008 | [2] -0.01 | entospletinib 0.014

PRDM10 isoform 6 (UniProt Q9NQV6)
inactive: [1] 0.048 | vorinostat -0.019 | silmitasertib -0.023 | entospletinib 0.002

PPP1R16A (UniProt Q96I34)
inactive: [1] 0.057 | vorinostat -0.06 | silmitasertib -0.247 | entospletinib 0.215

PRKX (UniProt P51817)
inactive: [1] -0.194 | entospletinib -0.133

PRKAG1 (UniProt P54619)
inactive: [1] -0.001 | vorinostat -0.062 | silmitasertib 0.065 | [2] 0.006 | entospletinib 0.011

PPP2CB (UniProt E5RHC1)
inactive: [2] -0.013

PPP4R4 (UniProt Q6NUP7)
inactive: [1] 0.201 | vorinostat 0.323 | silmitasertib -0.155 | [2] 0.385 | entospletinib 0.163

PRPF40B (UniProt Q6NWY9)
inactive: [2] 0.01

PPIP5K1 (UniProt Q6PFW1)
inactive: [1] 0.029 | vorinostat -0.119 | silmitasertib 0 | [2] -0.023 | entospletinib -0.041

PRNP (UniProt P04156)
inactive: vorinostat -0.052 | silmitasertib -0.018 | [2] -0.007

PPP1R14C (UniProt Q8TAE6)
inactive: [1] -0.061 | entospletinib -0.046

PPIL1 (UniProt Q9Y3C6)
inactive: [1] -0.027 | vorinostat -0.169 | silmitasertib 0.029 | [2] -0.032 | entospletinib 0

PRADC1 (UniProt Q9BSG0)
inactive: vorinostat 0.07 | silmitasertib -0.041 | [2] -0.012

PRPF40A isoform 3 (UniProt O75400)
inactive: vorinostat 0.017 | silmitasertib -0.059 | entospletinib 0.15

PPP1CB (UniProt P62140)
inactive: [1] -0.041 | vorinostat -0.056 | silmitasertib -0.001 | [2] -0.046 | entospletinib 0.002

PPP1R7 (UniProt Q15435)
inactive: [1] -0.012 | vorinostat 0.068 | silmitasertib -0.003 | [2] -0.006 | entospletinib -0.013

PPIH (UniProt O43447)
inactive: [1] -0.009 | vorinostat -0.009 | silmitasertib 0.041 | [2] -0.057 | entospletinib 0.003

PRMT2 (UniProt P55345)
inactive: [1] 0.046 | entospletinib -0.008
